In publication doi:10.1101/2025.05.28.656747:
Where two headings read alike, the source gives them in different places. No constants are given. Whether binding was seen depends on the method and setting. Binding seen in cells or lysates may run through a third protein. Some entries that bind do so weakly or less than the wild type. Tags and fused reporters may be left off the sequences shown.

By UniProt entry, the sequences of proteins in these tests, tags left out.
UniProt Q9UQE7: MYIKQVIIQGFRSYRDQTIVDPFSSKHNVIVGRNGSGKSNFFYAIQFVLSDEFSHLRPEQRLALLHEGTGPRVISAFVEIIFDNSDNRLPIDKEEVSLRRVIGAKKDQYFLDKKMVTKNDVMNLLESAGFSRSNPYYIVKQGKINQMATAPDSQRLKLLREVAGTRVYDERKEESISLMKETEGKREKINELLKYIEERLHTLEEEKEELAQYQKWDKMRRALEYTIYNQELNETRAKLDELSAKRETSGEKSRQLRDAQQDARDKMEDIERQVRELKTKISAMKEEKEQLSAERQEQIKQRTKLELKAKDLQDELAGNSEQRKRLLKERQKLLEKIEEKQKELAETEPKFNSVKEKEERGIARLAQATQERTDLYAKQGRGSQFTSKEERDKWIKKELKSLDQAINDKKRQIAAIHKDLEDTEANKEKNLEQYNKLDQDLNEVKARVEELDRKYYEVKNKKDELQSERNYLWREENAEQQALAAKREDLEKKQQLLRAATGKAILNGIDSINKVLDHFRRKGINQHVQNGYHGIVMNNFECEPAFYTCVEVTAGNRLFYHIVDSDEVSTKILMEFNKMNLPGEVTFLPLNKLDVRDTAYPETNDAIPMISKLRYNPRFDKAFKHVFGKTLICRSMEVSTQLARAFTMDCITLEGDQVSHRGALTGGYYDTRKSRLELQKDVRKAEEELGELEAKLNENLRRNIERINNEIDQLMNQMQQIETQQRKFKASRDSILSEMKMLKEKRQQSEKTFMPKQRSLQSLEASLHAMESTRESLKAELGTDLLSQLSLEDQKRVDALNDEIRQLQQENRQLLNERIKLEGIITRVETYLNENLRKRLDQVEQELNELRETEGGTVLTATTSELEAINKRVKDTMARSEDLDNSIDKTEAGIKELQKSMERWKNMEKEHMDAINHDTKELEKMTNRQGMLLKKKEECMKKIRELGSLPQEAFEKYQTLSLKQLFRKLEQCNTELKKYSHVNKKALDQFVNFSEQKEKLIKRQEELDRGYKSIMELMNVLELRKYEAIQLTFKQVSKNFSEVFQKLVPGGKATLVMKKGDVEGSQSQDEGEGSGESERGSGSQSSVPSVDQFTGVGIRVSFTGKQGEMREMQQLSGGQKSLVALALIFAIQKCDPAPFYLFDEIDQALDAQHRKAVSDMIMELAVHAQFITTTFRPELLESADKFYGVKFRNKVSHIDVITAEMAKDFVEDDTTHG
UniProt P53350: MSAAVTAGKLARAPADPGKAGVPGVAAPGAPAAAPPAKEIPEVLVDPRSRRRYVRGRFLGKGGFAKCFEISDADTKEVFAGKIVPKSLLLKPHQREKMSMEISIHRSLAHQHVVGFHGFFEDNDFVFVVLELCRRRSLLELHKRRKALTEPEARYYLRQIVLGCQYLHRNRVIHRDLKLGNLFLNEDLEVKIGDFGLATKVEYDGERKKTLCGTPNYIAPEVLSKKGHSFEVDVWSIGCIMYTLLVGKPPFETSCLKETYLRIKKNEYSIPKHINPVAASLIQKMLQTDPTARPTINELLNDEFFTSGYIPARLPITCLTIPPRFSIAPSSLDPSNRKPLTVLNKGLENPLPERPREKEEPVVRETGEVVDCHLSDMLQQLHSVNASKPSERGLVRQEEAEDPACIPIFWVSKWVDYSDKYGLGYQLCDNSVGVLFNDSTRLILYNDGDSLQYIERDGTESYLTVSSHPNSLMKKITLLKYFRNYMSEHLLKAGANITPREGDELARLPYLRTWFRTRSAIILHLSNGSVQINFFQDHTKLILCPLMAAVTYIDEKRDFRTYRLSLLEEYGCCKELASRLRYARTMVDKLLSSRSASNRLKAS
UniProt O95347: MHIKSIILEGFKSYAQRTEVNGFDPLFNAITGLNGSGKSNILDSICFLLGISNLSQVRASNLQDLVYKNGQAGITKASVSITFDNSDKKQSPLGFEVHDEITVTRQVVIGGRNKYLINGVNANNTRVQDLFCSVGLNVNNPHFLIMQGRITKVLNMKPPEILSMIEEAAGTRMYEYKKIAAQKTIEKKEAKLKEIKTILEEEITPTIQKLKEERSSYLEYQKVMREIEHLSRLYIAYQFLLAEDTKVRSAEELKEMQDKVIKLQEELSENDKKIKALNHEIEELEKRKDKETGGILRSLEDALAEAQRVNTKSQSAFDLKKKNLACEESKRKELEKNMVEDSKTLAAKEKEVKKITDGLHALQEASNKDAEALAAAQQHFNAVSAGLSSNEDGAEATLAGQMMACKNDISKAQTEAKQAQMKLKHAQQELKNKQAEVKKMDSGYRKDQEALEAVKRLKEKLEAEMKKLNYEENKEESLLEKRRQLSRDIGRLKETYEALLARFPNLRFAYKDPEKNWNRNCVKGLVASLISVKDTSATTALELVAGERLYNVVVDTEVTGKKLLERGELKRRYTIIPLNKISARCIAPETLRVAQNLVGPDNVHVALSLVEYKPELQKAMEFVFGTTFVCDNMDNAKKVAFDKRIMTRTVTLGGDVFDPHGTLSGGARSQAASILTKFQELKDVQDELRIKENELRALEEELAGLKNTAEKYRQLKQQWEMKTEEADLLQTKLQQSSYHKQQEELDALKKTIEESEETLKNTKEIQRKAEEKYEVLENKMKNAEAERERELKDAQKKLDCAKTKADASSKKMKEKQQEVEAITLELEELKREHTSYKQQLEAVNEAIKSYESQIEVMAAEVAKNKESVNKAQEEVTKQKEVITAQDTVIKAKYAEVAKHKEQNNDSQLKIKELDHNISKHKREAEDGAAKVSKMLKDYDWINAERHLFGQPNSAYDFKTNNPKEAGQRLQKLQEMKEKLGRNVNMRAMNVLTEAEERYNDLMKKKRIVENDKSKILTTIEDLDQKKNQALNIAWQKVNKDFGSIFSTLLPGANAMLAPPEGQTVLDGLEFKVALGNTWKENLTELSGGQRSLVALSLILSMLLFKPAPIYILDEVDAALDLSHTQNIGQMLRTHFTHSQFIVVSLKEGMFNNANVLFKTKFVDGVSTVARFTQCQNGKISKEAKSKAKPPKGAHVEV

T1: 1×Flag-ADAR1p110 (Adenosine Deaminase Acting on RNA 1 p110) (UniProt P55265)
T1 sequence: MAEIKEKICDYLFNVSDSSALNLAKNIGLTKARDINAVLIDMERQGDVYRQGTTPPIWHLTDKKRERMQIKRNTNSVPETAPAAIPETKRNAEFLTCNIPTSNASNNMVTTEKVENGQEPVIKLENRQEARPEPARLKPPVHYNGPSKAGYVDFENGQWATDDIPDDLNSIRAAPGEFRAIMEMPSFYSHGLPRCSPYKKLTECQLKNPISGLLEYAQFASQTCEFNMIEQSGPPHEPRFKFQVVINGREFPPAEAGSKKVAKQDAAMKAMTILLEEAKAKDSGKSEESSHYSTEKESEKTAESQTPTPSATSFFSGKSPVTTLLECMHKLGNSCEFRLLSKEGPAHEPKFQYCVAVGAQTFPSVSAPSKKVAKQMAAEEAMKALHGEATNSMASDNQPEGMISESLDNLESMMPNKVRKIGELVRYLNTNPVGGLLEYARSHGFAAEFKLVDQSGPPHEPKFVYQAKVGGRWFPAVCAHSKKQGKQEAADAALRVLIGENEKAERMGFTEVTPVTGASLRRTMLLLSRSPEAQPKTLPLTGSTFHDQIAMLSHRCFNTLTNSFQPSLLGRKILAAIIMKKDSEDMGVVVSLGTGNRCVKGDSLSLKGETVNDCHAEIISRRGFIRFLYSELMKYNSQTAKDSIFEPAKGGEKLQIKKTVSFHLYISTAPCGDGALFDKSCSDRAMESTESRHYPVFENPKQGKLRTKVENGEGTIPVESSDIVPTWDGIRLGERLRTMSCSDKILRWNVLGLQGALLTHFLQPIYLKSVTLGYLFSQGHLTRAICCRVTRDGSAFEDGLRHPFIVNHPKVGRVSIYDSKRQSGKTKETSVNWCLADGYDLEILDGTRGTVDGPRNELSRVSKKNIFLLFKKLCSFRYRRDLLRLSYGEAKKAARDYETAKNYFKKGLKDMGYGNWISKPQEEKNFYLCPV


Assays:
Test in all cases: co-IP
[1] = biological target: T1, 1×Flag-ADAR1p110 (Adenosine Deaminase Acting on RNA 1 p110)
[2] = biological target: Structural Maintenance of Chromosome 3 (SMC3) (human (endogenous in HeLa)) (UniProt Q9UQE7)
[3] = biological target: T1, 1×Flag-ADAR1p110 (Adenosine Deaminase Acting on RNA 1 p110); remark: listed apart in the source

Row | Molecule | binding [1] | also measured
1 | PLK1 (from UniProt P53350 1-603) (enzyme) | binds | –
2 | SMC2 (from UniProt O95347 1-1197) | binds | –
3 | Structural Maintenance of Chromosome 3 (SMC3) (from UniProt Q9UQE7 1-1217) | binds | –
4 | 1×Flag-ADAR1p110 (Adenosine Deaminase Acting on RNA 1 p110) (enzyme, UniProt P55265-5 1-931) MAEIKEKICDYLFNVSDSSALNLAKNIGLTKARDINAVLIDMERQGDVYRQGTTPPIWHLTDKKRERMQIKRNTNSVPETAPAAIPETKRNAEFLTCNIPTSNASNNMVTTEKVENGQEPVIKLENRQEARPEPARLKPPVHYNGPSKAGYVDFENGQWATDDIPDDLNSIRAAPGEFRAIMEMPSFYSHGLPRCSPYKKLTECQLKNPISGLLEYAQFASQTCEFNMIEQSGPPHEPRFKFQVVINGREFPPAEAGSKKVAKQDAAMKAMTILLEEAKAKDSGKSEESSHYSTEKESEKTAESQTPTPSATSFFSGKSPVTTLLECMHKLGNSCEFRLLSKEGPAHEPKFQYCVAVGAQTFPSVSAPSKKVAKQMAAEEAMKALHGEATNSMASDNQPEGMISESLDNLESMMPNKVRKIGELVRYLNTNPVGGLLEYARSHGFAAEFKLVDQSGPPHEPKFVYQAKVGGRWFPAVCAHSKKQGKQEAADAALRVLIGENEKAERMGFTEVTPVTGASLRRTMLLLSRSPEAQPKTLPLTGSTFHDQIAMLSHRCFNTLTNSFQPSLLGRKILAAIIMKKDSEDMGVVVSLGTGNRCVKGDSLSLKGETVNDCHAEIISRRGFIRFLYSELMKYNSQTAKDSIFEPAKGGEKLQIKKTVSFHLYISTAPCGDGALFDKSCSDRAMESTESRHYPVFENPKQGKLRTKVENGEGTIPVESSDIVPTWDGIRLGERLRTMSCSDKILRWNVLGLQGALLTHFLQPIYLKSVTLGYLFSQGHLTRAICCRVTRDGSAFEDGLRHPFIVNHPKVGRVSIYDSKRQSGKTKETSVNWCLADGYDLEILDGTRGTVDGPRNELSRVSKKNIFLLFKKLCSFRYRRDLLRLSYGEAKKAARDYETAKNYFKKGLKDMGYGNWISKPQEEKNFYLCPV | – | binding [2]: binds
5 | CDC25C (enzyme, UniProt P30307 1-473) MSTELFSSTREEGSSGSGPSFRSNQRKMLNLLLERDTSFTVCPDVPRTPVGKFLGDSANLSILSGGTPKRCLDLSNLSSGEITATQLTTSADLDETGHLDSSGLQEVHLAGMNHDQHLMKCSPAQLLCSTPNGLDRGHRKRDAMCSSSANKENDNGNLVDSEMKYLGSPITTVPKLDKNPNLGEDQAEEISDELMEFSLKDQEAKVSRSGLYRSPSMPENLNRPRLKQVEKFKDNTIPDKVKKKYFSGQGKLRKGLCLKKTVSLCDITITQMLEEDSNQGHLIGDFSKVCALPTVSGKHQDLKYVNPETVAALLSGKFQGLIEKFYVIDCRYPYEYLGGHIQGALNLYSQEELFNFFLKKPIVPLDTQKRIIIVFHCEFSSERGPRMCRCLREEDRSLNQYPALYYPELYILKGGYRDFFPEYMELCEPQSYCPMHHQDHKTELLRCRSQSKVQEGERQLREQIALLVKDMSP | – | binding [3]: no binding
